Reference: PMC7196074
Results are given in words; binding and its absence hold for the method and conditions named. Binding seen in cells or lysates may run through a third protein. Binding calls can cover weak binding; strength is not graded here. Sequences can lack the tags named with a protein.

What was measured:
[1] = target: T1, FLAG-FFL-Aub (Drosophila) (UniProt O76922); experiment: co-IP; LUMIER (quantitative luminescence-based coIP): FLAG-FFL-Aub and HA-RL fusions transiently expressed in S2R+ cells; lysates in HNTG buffer on plates coated with anti-FLAG, 3 h on ice; Renilla and Firefly luciferase activities read; control without antibody
T1 sequence: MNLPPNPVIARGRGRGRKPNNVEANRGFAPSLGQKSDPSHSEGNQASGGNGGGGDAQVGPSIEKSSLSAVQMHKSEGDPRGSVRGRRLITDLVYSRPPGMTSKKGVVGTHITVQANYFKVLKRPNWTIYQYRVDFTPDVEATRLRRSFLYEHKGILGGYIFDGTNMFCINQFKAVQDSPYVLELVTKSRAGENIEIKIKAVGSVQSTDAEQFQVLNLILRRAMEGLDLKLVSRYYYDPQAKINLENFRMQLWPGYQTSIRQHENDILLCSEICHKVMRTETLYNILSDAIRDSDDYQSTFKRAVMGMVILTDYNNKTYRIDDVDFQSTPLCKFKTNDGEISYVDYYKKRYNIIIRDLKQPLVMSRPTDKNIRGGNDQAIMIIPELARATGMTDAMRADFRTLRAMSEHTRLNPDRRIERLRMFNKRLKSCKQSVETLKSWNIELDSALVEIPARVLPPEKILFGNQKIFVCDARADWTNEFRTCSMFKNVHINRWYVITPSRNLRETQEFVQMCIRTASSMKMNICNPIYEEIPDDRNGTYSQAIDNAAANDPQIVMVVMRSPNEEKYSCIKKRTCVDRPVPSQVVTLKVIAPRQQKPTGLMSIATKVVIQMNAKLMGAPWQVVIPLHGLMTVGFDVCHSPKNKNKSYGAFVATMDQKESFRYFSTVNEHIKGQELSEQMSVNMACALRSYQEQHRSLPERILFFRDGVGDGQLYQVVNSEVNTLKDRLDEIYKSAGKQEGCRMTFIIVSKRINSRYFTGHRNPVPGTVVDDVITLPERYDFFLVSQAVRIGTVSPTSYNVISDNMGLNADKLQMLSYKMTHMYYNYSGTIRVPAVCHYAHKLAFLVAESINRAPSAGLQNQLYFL

[2] = target: T2, GFP-Aub (Aubergine) (Drosophila) (UniProt O76922); experiment: co-IP; as a3 but extracts with RNase A (40 U/µL); IP with anti-GFP, anti-HA or anti-PABP; western blot
T2 sequence: T1 sequence

[3] = target: T2, GFP-Aub (Aubergine) (Drosophila); experiment: co-IP; 0-2 h embryo extracts in IP buffer (20 mM Tris pH 7.5, 150 mM NaCl, 0.2% NP-40) with RNase inhibitor; IP with anti-GFP, anti-HA or anti-PABP, 2.5 h at 4 °C; western blot

| binding [1] | binding [2] | binding [3] | Substance |
| --- | --- | --- | --- |
| binds | – | – | HA-RL-eIF3g (Drosophila) |
| binds | – | – | HA-RL-eIF4E (Drosophila) |
| – | binds | binds | HA-eIF3d (Drosophila) |

The next lines start with the substance.

| Substance | binding [1] | binding [2] | binding [3] |
| --- | --- | --- | --- |
| HA-RL-eIF3d (Drosophila) | binds | – | – |
| HA-RL-eIF3f (Drosophila) | no binding | – | – |
